{"source": "the supplement of paper PMC3334620", "note": "Whole data set: some 33,000 sequences, median “E-score (-0.5 to 0.5)” near -0.0034, cut for the highest 2% near 0.25. The list shows a part of the results."}
{"target": "T1, Yap3 (UniProt P38749)", "T1 sequence": "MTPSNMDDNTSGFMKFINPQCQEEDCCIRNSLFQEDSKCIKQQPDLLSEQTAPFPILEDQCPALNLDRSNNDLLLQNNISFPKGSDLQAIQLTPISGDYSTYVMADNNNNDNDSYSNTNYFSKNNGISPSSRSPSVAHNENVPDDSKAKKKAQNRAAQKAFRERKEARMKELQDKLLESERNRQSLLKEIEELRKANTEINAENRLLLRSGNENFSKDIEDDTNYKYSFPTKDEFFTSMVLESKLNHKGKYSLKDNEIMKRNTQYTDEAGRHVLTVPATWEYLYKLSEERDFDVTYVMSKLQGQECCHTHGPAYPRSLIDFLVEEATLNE", "assay": "PBM E-score (8-mer binding enrichment) (E-score (-0.5 to 0.5)); higher = stronger / more preferred TF binding", "details": "protein concentration: 100 nM; construct: GST-full length", "method_in_brief": "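E-scores (a modified Wilcoxon-Mann-Whitney statistic) were assigned by the Universal PBM Analysis Suite to every ungapped eight-base word pooled with its reverse complement. The input came from universal all-10-mer Agilent arrays made double-stranded by primer extension and probed with GST-tagged yeast transcription factors at about 100-200 nM. Fluorescent anti-GST detected bound protein, and masliner normalised the scans.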"}
{"sequence": "AGCTCGAC", "PBM E-score": -0.00238}
{"sequence": "CCCAGGCC", "PBM E-score": -0.294}
{"sequence": "ATTACCTA", "PBM E-score": 0.211}
{"sequence": "AGTTATAG", "PBM E-score": 0.148}
{"sequence": "ATCTTCCA", "PBM E-score": -0.0569}
{"sequence": "GCCTGTAA", "PBM E-score": -0.113}
{"sequence": "ATATCTAC", "PBM E-score": 0.211}
{"sequence": "GCGACTAA", "PBM E-score": 0.0907}
{"sequence": "CGGTTGTC", "PBM E-score": 0.0466}
{"sequence": "CTTGGCCA", "PBM E-score": -0.126}
{"sequence": "ACGTTTGA", "PBM E-score": 0.178}
{"sequence": "GCCAGAAC", "PBM E-score": -0.0153}
{"sequence": "CTTGGCAC", "PBM E-score": -0.101}
{"sequence": "ATATAGCC", "PBM E-score": 0.181}
{"sequence": "CGGGTAGC", "PBM E-score": -0.27}
{"sequence": "CGGGTGCC", "PBM E-score": -0.162}
{"sequence": "CTTGACCA", "PBM E-score": 0.0113}
{"sequence": "CGCGTTGC", "PBM E-score": 0.169}
{"sequence": "AGTTTTAC", "PBM E-score": 0.116}
{"sequence": "ATGGCACC", "PBM E-score": -0.14}
{"sequence": "ACGTGGTG", "PBM E-score": -0.0978}
{"sequence": "AGAATTCG", "PBM E-score": -0.00938}
{"sequence": "TGTTTGAA", "PBM E-score": 0.0701}
{"sequence": "GGGGGTCA", "PBM E-score": -0.445}
{"sequence": "AGATAGAG", "PBM E-score": 0.104}
{"sequence": "CAAGTTCC", "PBM E-score": -0.0855}
{"sequence": "GGCCCCGA", "PBM E-score": -0.248}
{"sequence": "GAACCAGA", "PBM E-score": -0.13}
{"sequence": "CGGTCAAG", "PBM E-score": 0.0378}
{"sequence": "AAGTAGCG", "PBM E-score": -0.0947}
{"sequence": "ACGCATCA", "PBM E-score": 0.114}
{"sequence": "CAGTTGAA", "PBM E-score": -0.0326}
{"sequence": "ACTGTAAC", "PBM E-score": 0.0996}
{"sequence": "AAAAGGGA", "PBM E-score": 0.0232}
{"sequence": "AAACACTA", "PBM E-score": 0.198}
{"sequence": "GTATACCA", "PBM E-score": 0.0641}
{"sequence": "CGGCTAAA", "PBM E-score": 0.137}
{"sequence": "GACGCGTC", "PBM E-score": -0.202}
{"sequence": "GTTCCGTA", "PBM E-score": 0.122}
{"sequence": "ACTAGAAG", "PBM E-score": -0.0283}
{"sequence": "AGGATGCG", "PBM E-score": -0.0348}
{"sequence": "CTCCCCGC", "PBM E-score": 0.119}
{"sequence": "AGGAAGTA", "PBM E-score": 0.00039}
{"sequence": "AAAAAGAT", "PBM E-score": 0.147}
{"sequence": "CCTAACGA", "PBM E-score": -0.0689}
{"sequence": "AACATGCG", "PBM E-score": 0.0668}
{"sequence": "AACCCGAG", "PBM E-score": -0.0401}
{"sequence": "CTCGCCGC", "PBM E-score": -0.0489}
{"sequence": "CGTAGAGA", "PBM E-score": 0.00862}
{"sequence": "ACCGGAGA", "PBM E-score": 0.0527}
{"sequence": "GCCCTCAA", "PBM E-score": -0.139}
{"sequence": "CTGTCGTA", "PBM E-score": 0.0338}
{"sequence": "CGATATAC", "PBM E-score": 0.0779}
{"sequence": "GGTCCCTA", "PBM E-score": -0.116}
{"sequence": "CGCGTTGA", "PBM E-score": -0.0193}
{"sequence": "CCGAAGAC", "PBM E-score": -0.0282}
{"sequence": "GGAAGCCC", "PBM E-score": -0.334}
{"sequence": "CTCTAGCC", "PBM E-score": -0.204}
{"sequence": "ATCCAGGC", "PBM E-score": -0.138}
{"sequence": "CAATTCGC", "PBM E-score": 0.238}
{"sequence": "GCGTACCC", "PBM E-score": -0.161}
{"sequence": "AGGAGACA", "PBM E-score": 0.102}
{"sequence": "CTGGGTTC", "PBM E-score": -0.0258}
{"sequence": "GTAAGAGA", "PBM E-score": 0.00971}
{"sequence": "ACCTTTAT", "PBM E-score": -0.0322}
{"sequence": "GTCTAAGA", "PBM E-score": 0.0273}
{"sequence": "GTAGGTTA", "PBM E-score": 0.0693}
{"sequence": "GCATCGGC", "PBM E-score": -0.193}
{"sequence": "GGCGGAGA", "PBM E-score": -0.0553}
{"sequence": "ATCCACGC", "PBM E-score": -0.117}
{"sequence": "GTAATGAC", "PBM E-score": 0.0925}
{"sequence": "CTCTATTC", "PBM E-score": 0.0496}
{"sequence": "GTTTTACA", "PBM E-score": 0.0198}
{"sequence": "CTTCTCAA", "PBM E-score": -0.0635}
{"sequence": "CACTGCGA", "PBM E-score": 0.0223}
{"sequence": "ACGTGCTA", "PBM E-score": 0.0232}
{"sequence": "AGTAATGG", "PBM E-score": 0.179}
{"sequence": "ATGGTTGG", "PBM E-score": -0.109}
{"sequence": "GAACCTTA", "PBM E-score": 0.155}
{"sequence": "AGGACCCG", "PBM E-score": -0.109}
{"sequence": "ATTTCGTG", "PBM E-score": 0.109}
{"sequence": "CTTGTAAA", "PBM E-score": 0.107}
{"sequence": "GCAGGGAA", "PBM E-score": 0.049}
{"sequence": "CTTCTACA", "PBM E-score": 0.0486}
{"sequence": "CGCCAACA", "PBM E-score": 0.0908}
{"sequence": "GGGGAGGA", "PBM E-score": -0.273}
{"sequence": "AAAACCGT", "PBM E-score": 0.0377}
{"sequence": "AGCTTCCT", "PBM E-score": -0.0053}
{"sequence": "AATCGGAA", "PBM E-score": 0.211}
{"sequence": "GAGTATCA", "PBM E-score": -0.0124}
{"sequence": "TCGCATCA", "PBM E-score": 0.0999}
{"sequence": "CAGTAGTA", "PBM E-score": 0.0225}
{"sequence": "ATGATCAG", "PBM E-score": 0.0252}
{"sequence": "AAGTGCTC", "PBM E-score": -0.204}
{"sequence": "CTCAGTGA", "PBM E-score": -0.0771}
{"sequence": "GCTGTAGA", "PBM E-score": -0.0692}
{"sequence": "ACAATTCT", "PBM E-score": 0.0509}
{"sequence": "ATGTGAAA", "PBM E-score": 0.134}
{"sequence": "ACCACCAA", "PBM E-score": 0.0182}
{"sequence": "ATTTGTAA", "PBM E-score": 0.373}
{"sequence": "AATATATA", "PBM E-score": 0.229}
{"sequence": "CAGCCCTA", "PBM E-score": 0.00827}
{"sequence": "CTAACAGC", "PBM E-score": -0.0488}
{"sequence": "AACGCAGT", "PBM E-score": -0.0967}
{"sequence": "ATAGCCGA", "PBM E-score": 0.074}
{"sequence": "TCGTCCCA", "PBM E-score": -0.0108}
{"sequence": "GGGATCTA", "PBM E-score": -0.0775}
{"sequence": "ATGCTGTA", "PBM E-score": 0.0217}
{"sequence": "GAGTATCC", "PBM E-score": 0.00458}
{"sequence": "CATAGACC", "PBM E-score": 0.0365}
{"sequence": "GGGTTCAC", "PBM E-score": -0.148}
{"sequence": "GCTCGAAC", "PBM E-score": 0.0117}
{"sequence": "ACACTTAC", "PBM E-score": 0.0812}
{"sequence": "AGTCAAGG", "PBM E-score": -0.064}
{"sequence": "GACGTCCA", "PBM E-score": 0.125}
{"sequence": "TATGTTGA", "PBM E-score": 0.233}
{"sequence": "CCAGGACA", "PBM E-score": 0.0041}
{"sequence": "GATGGTCC", "PBM E-score": -0.109}
{"sequence": "ACGCAATA", "PBM E-score": 0.165}
{"sequence": "GGCTCCAC", "PBM E-score": -0.184}
{"sequence": "GCGAGGAA", "PBM E-score": -0.0709}
{"sequence": "GGGCCGAA", "PBM E-score": -0.196}
{"sequence": "CGATCTCA", "PBM E-score": 0.0754}
{"sequence": "AAACTTGT", "PBM E-score": -0.014}
{"sequence": "ATCCGCAT", "PBM E-score": 0.12}
{"sequence": "CTAGAACC", "PBM E-score": -0.0352}
{"sequence": "AACGCCCG", "PBM E-score": 0.0232}
{"sequence": "CATGAAGC", "PBM E-score": -0.102}
{"sequence": "ACGTTCTG", "PBM E-score": -0.0681}
{"sequence": "ACATTGCA", "PBM E-score": 0.0303}
{"sequence": "CCCCGAGG", "PBM E-score": -0.19}
{"sequence": "CGGTTAGA", "PBM E-score": -0.0778}
{"sequence": "CGTACGTC", "PBM E-score": -0.0833}
{"sequence": "GTACCATA", "PBM E-score": -0.068}
{"sequence": "AGAGGTTG", "PBM E-score": -0.209}
{"sequence": "AAATAGAC", "PBM E-score": 0.179}
{"sequence": "AAGCAACA", "PBM E-score": 0.0314}
{"sequence": "CAGGGTGC", "PBM E-score": -0.158}
{"sequence": "GATGAGAA", "PBM E-score": 0.0962}
{"sequence": "CCGTCCGC", "PBM E-score": -0.237}
{"sequence": "ATAAAGCG", "PBM E-score": 0.254}
{"sequence": "AGTTCGCG", "PBM E-score": 0.105}
{"sequence": "ACTCACAC", "PBM E-score": -0.0492}
{"sequence": "AACAGAGG", "PBM E-score": -0.0698}
{"sequence": "GTCCAAAC", "PBM E-score": -0.171}
{"sequence": "ACACTGAC", "PBM E-score": 0.103}
{"sequence": "CCCGATTC", "PBM E-score": -0.00335}
{"sequence": "AACAAAGT", "PBM E-score": 0.221}
{"sequence": "ATAAATCC", "PBM E-score": 0.0986}
{"sequence": "ATTTGAAC", "PBM E-score": 0.0499}
{"sequence": "CGCCGAGA", "PBM E-score": -0.0405}
{"sequence": "AAAGGGCG", "PBM E-score": -0.0936}
{"sequence": "TACGCCAA", "PBM E-score": -0.211}
{"sequence": "CCCGCCAC", "PBM E-score": -0.00354}
{"sequence": "CTTCGTCA", "PBM E-score": 0.111}
{"sequence": "CGATACAC", "PBM E-score": -0.0355}
{"sequence": "AATATATG", "PBM E-score": 0.304}
{"sequence": "AACAGTCT", "PBM E-score": -0.212}
{"sequence": "AATTTTCT", "PBM E-score": 0.15}
{"sequence": "GATCTAAC", "PBM E-score": 0.0181}
{"sequence": "CGTCAGCA", "PBM E-score": -0.00789}
{"sequence": "AGTACTCC", "PBM E-score": -0.112}
{"sequence": "ACACGGGC", "PBM E-score": -0.0903}
{"sequence": "AACGAACC", "PBM E-score": 0.185}
{"sequence": "TACAGTCA", "PBM E-score": 0.0978}
{"sequence": "CCCCTCCG", "PBM E-score": -0.27}
{"sequence": "AAGTGTTG", "PBM E-score": 0.181}
{"sequence": "AACCAATA", "PBM E-score": 0.103}
{"sequence": "ATCATTAA", "PBM E-score": 0.207}
{"sequence": "TGAGAGCA", "PBM E-score": 0.0596}
{"sequence": "ACAGCGAA", "PBM E-score": 0.0633}
{"sequence": "TGCCCCCA", "PBM E-score": -0.1}
